Data from patent US20240345008A1 (Eth Zurich, priority 2021, published 2024).
Positions of bridges follow the written chain, without caps; N, C: chain ends. Non-standard residues stand in square brackets, D forms with d. Residues, ends and D or L forms follow the SMILES beside them. hArg = N=C(N)NCCCC[CH](N)C(=O)O; Mpa = O=C(O)CCS

Assay: photo-CIDNP polarizability of ligands: signal-to-noise enhancement (SNE), irradiated vs non-irradiated 1H NMR
Assay type: physicochemical
Settings: 600 MHz; for signal-to-noise enhancement (SNE): ligand 100 μM, 2 s irradiation, phosphate buffer pH 7.0
[1] = photosensitizer fluorescein 25 μM, 450 nm
[2] = photosensitizer AT12 25 μM, 532 nm
[3] = photosensitizer thionine 75 μM, 638 nm
[4] = photosensitizer FMN 25 μM, 450 nm

SMILES	signal-to-noise enhancement (SNE) [1]	further results
CN(C)C(=O)c1cc2cnc(Nc3ccc(N4CCNCC4)cn3)nc2n1C1CCCC1 [7-cyclopentyl-N,N-dimethyl-2-{[5-(piperazin-1-yl)pyridin-2-yl]amino}-7H-pyrrolo[2,3-d]pyrimidine-6-carboxamide]	9	
CN1CCOC(CNc2nccs2)C1 (stereo not drawn) [N-[(4-Methyl-2-morpholinyl)methyl]-1,3-thiazol-2-amine]	100	
CCSc1cc(OC)c(CCN)cc1OC.Cl [2-[2,5-Dimethoxy-4-(ethylthio)phenyl]ethanamine•hydrochloride]		signal-to-noise enhancement (SNE) [2]: 7
CC(C)Nc1nc2ccccc2[nH]1 [N-(propan-2-yl)-1H-1,3-benzodiazol-2-amine]	31	signal-to-noise enhancement (SNE) [3]: 7
c1ccc(CCNc2nc3ccccc3[nH]2)cc1 [N-(2-phenylethyl)-1H-benzimidazol-2-amine]		signal-to-noise enhancement (SNE) [2]: 6; signal-to-noise enhancement (SNE) [3]: 8
O=C1NCCc2[nH]c(-c3ccncc3)cc21 [2-(pyridin-4-yl)-1H,4H,5H,6H,7H-pyrrolo[3,2-c]pyridin-4-one]	11	
CN(C)C(=O)c1ccc2c(c1)CCCN2 [N,N-dimethyl-1,2,3,4-tetrahydroquinoline-6-carboxamide]		signal-to-noise enhancement (SNE) [3]: 10
NNc1nncc2ccccc12 [1-hydrazinylphthalazine]	21	
C[C@@H]1CCN(C(=O)CC#N)C[C@@H]1N(C)c1ncnc2[nH]ccc12 [tofacitinib, 3-[(3R,4R)-4-methyl-3-[methyl({7H-pyrrolo[2,3-d]pyrimidin-4-yl})amino]piperidin-1-yl]-3-oxopropanenitrile]	68	photo-CIDNP activity of ligand (tofacitinib 100 μM, fluorescein 25 μM, 532 nm, 1 W, 4 s): photo-CIDNP active ligand
Cc1c(Cl)cccc1S(=O)(=O)Nc1nc(CC(=O)N2CCN(C)CC2)cs1 [3-chloro-2-methyl-N-{4-[2-(4-methylpiperazin-1-yl)-2-oxoethyl]-1,3-thiazol-2-yl}benzene-1-sulfonamide]	14	
CC1(N)CCN(c2cccnc2NC(=O)c2nc(-c3ncccc3C(F)(F)F)cnc2N)CC1 [3-amino-N-[3-(4-amino-4-methylpiperidin-1-yl)pyridin-2-yl]-6-[3-(trifluoromethyl)pyridin-2-yl]pyrazine-2-carboxamide]	12	
COC(=O)N1CCN(c2ccc(F)cc2)CC1 [Methyl 4-(4-fluorophenyl)-1-piperazinecarboxylate]	40	
O=C1C(Cl)=C(NCCN2CCOCC2)C(=O)c2ncccc21 [6-chloro-7-{[2-(morpholin-4-yl)ethyl]amino}-5,8-dihydroquinoline-5,8-dione]	7	
O=C1CCc2cc(OCCCCc3nnnn3C3CCCCC3)ccc2N1 [6-[4-(1-cyclohexyl-1H-1,2,3,4-tetrazol-5-yl)butoxy]-1,2,3,4-tetrahydroquinolin-2-one]	15	
COc1ccc2[nH]cc(CCNC(C)=O)c2c1 [N-[2-(5-methoxy-1H-indol-3-yl)ethyl]acetamide]		signal-to-noise enhancement (SNE) [2]: 45
CN(C)CCc1c[nH]c2ccccc12 [[2-(1H-indol-3-yl)ethyl]dimethylamine]		signal-to-noise enhancement (SNE) [2]: 14; signal-to-noise enhancement (SNE) [4]: 11
C[C@@H]1COCCN1c1cc(C2([S@](C)(=N)=O)CC2)nc(-c2ccnc3[nH]ccc23)n1 [(R)-imino(methyl)(1-{6-[(3R)-3-methylmorpholin-4-yl]-2-{1H-pyrrolo[2,3-b]pyridin-4-yl}pyrimidin-4-yl}cyclopropyl)-λ^6-sulfanone]	19	
NC(=O)c1ccc2c(c1)CCN2 [2,3-dihydro-1H-indole-5-carboxamide]		signal-to-noise enhancement (SNE) [3]: 9
Cc1ccc(Sc2ccccc2N2CCNCC2)c(C)c1 [1-{2-[(2,4-dimethylphenyl)sulfanyl]phenyl}piperazine]	8	

SMILES	signal-to-noise enhancement (SNE) [1]	further results
CC1=NN(c2ccccc2)C(=O)C1 [3-methyl-1-phenyl-4,5-dihydro-1H-pyrazol-5-one]	22	
O=C1CCN(c2ccccc2)N1 [1-phenylpyrazolidin-3-one]	33	
Clc1ccc2nsnc2c1NC1=NCCN1 [5-chloro-N-(4,5-dihydro-1H-imidazol-2-yl)-2,1,3-benzothiadiazol-4-amine]	7	
COCC(=O)Nc1ccc(O)cc1 [N-(4-hydroxyphenyl)-2-methoxyacetamide]		signal-to-noise enhancement (SNE) [3]: 9
Cc1c/c(=N/c2ccc(C)c(C)c2)n2ncnc2[nH]1 [(7Z)-N-(3,4-dimethylphenyl)-5-methyl-4H,7H-[1,2,4]triazolo[1,5-a]pyrimidin-7-imine]	7	
COc1ccc2c3c([nH]c2c1)C(C)=NCC3 [7-methoxy-1-methyl-3H,4H,9H-pyrido[3,4-b]indole]		signal-to-noise enhancement (SNE) [2]: 42
CCOc1ccccc1N1CCNCC1 [1-(2-ethoxyphenyl)piperazine]		signal-to-noise enhancement (SNE) [3]: 10
Cc1cc(C)nc(N)c1 [4,6-dimethylpyridin-2-amine]	7	
CC(N)Cc1ccc2c(c1)OCO2 (stereo not drawn) [1-(1,3-Benzodioxol-5-yl)propan-2-amine]		signal-to-noise enhancement (SNE) [4]: 29
O=c1[nH]cc(N2CCCCC2)c(=O)[nH]1 [5-(piperidin-1-yl)-1,2,3,4-tetrahydropyrimidine-2,4-dione]	29	
CCCCNc1ncc2c(-c3ccc(CN4CCN(C)CC4)cc3)cn([C@H]3CC[C@H](O)CC3)c2n1 [(1r,4r)-4-[2-(butylamino)-5-{4-[(4-methylpiperazin-1-yl)methyl]phenyl}-7H-pyrrolo[2,3-d]pyrimidin-7-yl]cyclohexan-1-ol]	22	
Cc1ccc(-c2csc(N)n2)s1 [4-(5-methylthiophen-2-yl)-1,3-thiazol-2-amine]	19	
CC(C)N(CCCNC(=O)Nc1ccc(C(C)(C)C)cc1)C[C@H]1O[C@@H](n2ccc3c(N)ncnc32)[C@H](O)[C@@H]1O [3-[3-{{[(2R,3S,4R,5R)-5-{4-amino-7H-pyrrolo[2,3-d]pyrimidin-7-yl}-3,4-dihydroxyoxolan-2-yl]methyl}(propan-2-yl)amino)propyl]-1-(4-tert-butylphenyl)urea]	45	
CN(C)CCc1c[nH]c2cccc(O)c12 [3-[2-(dimethylamino)ethyl]-1H-indol-4-ol]		signal-to-noise enhancement (SNE) [2]: 61; signal-to-noise enhancement (SNE) [4]: 17
NCCc1c[nH]c2ccccc12 [2-(1H-indol-3-yl)ethan-1-amine]		signal-to-noise enhancement (SNE) [3]: 15
N[C@H]1Cc2ccccc2N(O)C1=O [(3S)-3-amino-1-hydroxy-1,2,3,4-tetrahydroquinolin-2-one]	7	
CCNCc1cccc2[nH]ccc12 [ethyl[(1H-indol-4-yl)methyl]amine]	25	
NC(=O)C1CSSCCC(=O)NC(CCCCN=C(N)N)C(=O)NCC(=O)NC(CC(=O)O)C(=O)NC(Cc2c[nH]c3ccccc23)C(=O)N2CCCC2C(=O)N1 (stereo not drawn) [2-[20-carbamoyl-12-[4-(diaminomethylideneamino)butyl]-3-(1H-indol-3-ylmethyl)-2,5,8,11,14,22-hexaoxo-17,18-dithia-1,4,7,10,13,21-hexazabicyclo[21.3.0]hexacosan-6-yl]acetic acid] ([Mpa][hArg]GDWPC-NH2; disulfide 1-7; configuration not given here)		signal-to-noise enhancement (SNE) [2]: 56
